# Measurements: PubChem BioAssay AID1487 (National Center for Advancing Translational Sciences (NCATS), 2009)
# In all, about 200,000 compounds went through this assay and about 25 (0.01%) were called active. This list was built around the results that the source calls inconclusive (neither active nor inactive); the mix of calls is not that of the screen. The call rests on the fitted dose curve; in most records, active means well fitted inhibition curve with a large enough effect in the signal ratio, with a control signal flat (not every such curve was filed as active); inconclusive means small, poorly fitted or top-dose-only effect, or effect the other way, or a change in a side signal; inactive means flat fitted curve, though single readings scatter; the % refers to the signal ratio. Potencies beside an inconclusive call are fits to weak or partial responses and may not hold up.
# Assay: qHTS Assay for Modulators of Lamin A Splicing
# Conditions: HeLa LMNA splicing GFP/RFP minigene ratio, 48 h; ratio change, negative = inhibition: at 46.1 µM (top of the series) unless noted
# Method in brief: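 S3 HeLa stable clones carrying a lamin A-EGFP splicing minigene plus DsRed2 were seeded at 600 cells/well in Opti-MEM with 2% FBS, pin-dosed and incubated 48 h at 37°C. Acumen cytometry (488 nm) gave the GFP/RFP total-intensity ratio.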
# On the % scale 0 is the no-effect control and ±100 the full control effect; potency means the concentration at half of the fitted maximal effect.
Compound,"ratio change, negative = inhibition",Potency
S=c1[nH]nc(-c2ccco2)n1/N=C/c1ccc(Cl)cc1Cl,inactive: -7.92%,
COc1ccc(OC)c(NC(=O)c2cccc(Cn3cc(Br)c([N+](=O)[O-])n3)c2)c1,inconclusive: -33.1%,
Cc1c(C(=O)OCC(C)C)[nH]c2c1C(=O)CC(c1ccco1)C2 (centres undefined),inconclusive: 8.97%,
O=C1C(=O)N(C2CCCC2)C(=O)N1Cc1c(F)cccc1Cl,,"inconclusive: 1.26 µM [activator, single point]"
N/C(=N\NC(=O)Nc1ccc(Cl)cc1)c1ccccn1,inactive: 7.84% [at 46 µM],
Fc1cccc(Cl)c1CNc1n[nH]c(-c2ccco2)n1,inconclusive: -18.3% [at 46 µM],
Cc1oc2ccc(OCc3ccc(F)cc3)cc2c1C(=O)O,,"inconclusive: 20 µM [rising, single point]"
COc1ccc(S(=O)(=O)N(C)CC(=O)Nc2ccc(C(F)(F)F)cc2)cc1Cl,inconclusive: 6.1%,
CCn1c(=N)n(CCOc2ccc(Br)cc2)c2ccccc21,inconclusive: -18.8% [at 46 µM],
CC(C)c1ccc2nc(N)sc2c1,inconclusive: -6.18% [at 46 µM],
COc1cccc(/C=C/C(=O)c2ccc(C)c([N+](=O)[O-])c2)c1,inconclusive: 64.1%,
N#C/C(=C\c1cn(Cc2ccccc2C#N)c2ccccc12)C(=O)NCc1cccs1,inactive: 8.24%,
Cc1ccc(N2CC(NC(=O)c3ccc(S(=O)(=O)N4CCOCC4)cc3)CC2=O)cc1 (centres undefined),inactive: -10.1% [at 46 µM],
CCn1nc(C)c(CCN(C)C(=O)Nc2cc(OC)c(OC)c(OC)c2)c1C,inconclusive: 18.5% [at 46 µM],
CCN(C(=O)C(C)Cl)c1ccccc1 (centres undefined),inactive: 28.1% [at 46 µM],
O=C(COCc1cc(-c2cccs2)on1)N1CCN(c2cccc(Cl)c2)CC1,inconclusive: -7.96% [at 46 µM],
Nc1nc2c(nc(Br)n2C2O[C@H]3COP(=O)(O)O[C@@H]3C2O)c(=O)[nH]1 (some centres undefined),inactive: -15.4%,
Nc1ccc(-c2nc3ccc(N)cc3[nH]2)cc1,inconclusive: 6.26% [at 9.22 µM],
CN(CCCNC(=O)CCCOc1cc(=O)n(C)c2ccccc12)Cc1ccccc1,inconclusive: -25.6% [at 46 µM],
CCc1ccccc1Nc1nn2c(=O)c3ccc(C(=O)NCCCOC(C)C)cc3nc2s1,inconclusive: 33% [at 46 µM],
Cn1c(=O)c2c(nc(CN3CCN(c4ccccc4)CC3)n2CCN2CCOCC2)n(C)c1=O,inactive: -5.25%,

Compound,"ratio change, negative = inhibition",Potency
CSc1nnc(-c2ccc([N+](=O)[O-])cc2)o1,inconclusive: 17.4% [at 46 µM],
Oc1ccccc1CNc1cccc2cccnc12,inactive: 18% [at 46 µM],
Cc1nn(CC(=O)c2ccccc2)c(=O)c2nn(-c3ccccc3F)c(C)c12,inconclusive: 15.4%,
CN(C)c1ccc(-c2cc(NCc3ccccc3)ncn2)cc1,inactive: -3.17%,
CCn1c2ccccc2c2cc(NC(=O)CSc3nnc(-c4ccc(OC)cc4)n3N)ccc21,,"inconclusive: 35.5 µM [cytotoxic, single point]"
CCc1ccc(-n2c(SCc3ccccc3Cl)nc3[nH]ncc3c2=O)cc1,inconclusive: 70% [at 46 µM],
CN(C)/C=C(\C#N)C(=O)Nc1ccccc1,inconclusive: 10% [at 46 µM],
Cc1ccc(C(=O)CSc2nnc(-c3ccco3)n2C)cc1,inconclusive: 5.83% [at 46 µM],
COc1ccccc1N/C(N)=N/c1nc(CSc2ccc(C)cc2)cc(=O)[nH]1,,"inconclusive: 10 µM [fluorescent, partial curve, poor fit]"
CCC1(C)Cc2c(sc3nn[nH]c(=O)c23)CO1 (centres undefined),inactive: 6.23%,
CC/C(=N\NC(=O)c1ccc(-c2ccccc2)cc1)C12CC3CC(CC(C3)C1)C2,inactive: 2.09%,
COc1cc(OC)c(NC(=O)CN2CCCN(Cc3ccccc3C)S2(=O)=O)cc1Cl,inactive: -2.68% [at 46 µM],
O=S(=O)(Nc1cnc2ccccc2c1)N1CCCCCC1,,"inconclusive: 10 µM [fluorescent, partial curve]"
CCN(Cc1ccccc1)C(=O)c1ccc(SC)cc1OC,inconclusive: 8.11% [at 46 µM],
Cc1cc(Cl)cc2c1NC(=O)[C@]21[C@@H]2C(=O)N(Cc3ccccc3)C(=O)[C@@H]2[C@@H]2CCCN21,inconclusive: 3.84% [at 46 µM],
CNC(=S)N1CCc2ccccc2C1,inactive: -2.01%,
Cc1ccc(CCNC(=O)c2c3c(nc4ccccc24)C(=O)N(C2CCCCC2)C3)cc1,inactive: -6.98% [at 46 µM],
COc1ccccc1CNC(=O)c1ccc2c(=O)n(CCCN3CCCC3=O)c(=S)[nH]c2c1,inconclusive: -8.62% [at 46 µM],
COc1ccc(C(=O)Nc2cccc(C(=O)NCc3ccccc3)c2)cc1,inconclusive: 5.78% [at 46 µM],
O=C(Nc1cccn(Cc2c(Cl)cccc2Cl)c1=O)c1c(Cl)cccc1Cl,inconclusive: -20.2%,
COc1ccccc1CNC(=O)c1ccc(-c2ccccc2Cl)o1,,"inconclusive: 17.8 µM [falling, single point]"

Compound,"ratio change, negative = inhibition",Potency
Cc1ccccc1-c1ccc2ncnc(N3CCOCC3)c2c1,inconclusive: 20%,
O=C1C2CCCN2C(c2ccc(Cl)cc2)N1c1nccs1 (centres undefined),inactive: 0.857%,
CCN(CC)S(=O)(=O)c1cccc(NC(=O)COC(=O)/C=C/c2ccco2)c1,inconclusive: 6.99%,
NC(Cc1cccc(-c2ccccc2CP(=O)(O)O)c1)C(=O)O (centres undefined),inconclusive: -9.82%,
C/C(CC(=O)Nc1ccc(C)c(Cl)c1)=N\NC(=O)c1ccncc1,,"inconclusive: 1.41 µM [activator, partial curve, poor fit]"
COc1ccc(CNC(=O)COC(=O)c2ccccn2)cc1,inactive: 3.09% [at 46 µM],
CN(C)/N=C/c1cc([N+](=O)[O-])ccc1O,inconclusive: -13.7% [at 46 µM],
COc1cc(C2Nc3ccccc3C(=O)N2c2ccccc2)ccc1O (centres undefined),inconclusive: -13.5%,
CC1CCN(S(=O)(=O)c2ccc(NC(=O)Cn3nnc(-c4ccccc4F)n3)cc2)CC1,inconclusive: 19.7%,
COC(=O)N/N=C/c1cc(Cl)c(OCc2ccc(F)cc2)c(OC)c1,inactive: 6.12%,
CC(=O)N(O)CCCCCNC(=O)CCC(=O)N(O)CCCCCNC(=O)CCC(=O)N(O)CCCCCN,inconclusive: -6.93%,
Cc1ccc(NC(=O)CN2C(=O)COc3ccc(S(=O)(=O)NC4CCCC4)cc32)cc1Cl,inconclusive: -14.8% [at 46 µM],
CCCCC(=O)NCc1ccc2c(c1)cc(C)n2C,inactive: 11%,
COc1cccc(-c2nnc(SC(C(=O)c3c[nH]c4ccccc34)c3ccccc3)n2C)c1 (centres undefined),inconclusive: -25.5%,
COc1cccc(NCCC(=O)c2cccc([N+](=O)[O-])c2)c1,,"inconclusive: 35.5 µM [cytotoxic, single point]"
Cc1sc(NC(=O)c2ccco2)nc1-c1ccc2c(c1)CC(C)N2C(=O)C1CC1 (centres undefined),,"inconclusive: 10 µM [inhibitor, partial curve]"
CCN(CC)C(=O)c1sc(NC(=O)c2ccc(OC)c([N+](=O)[O-])c2)c(C#N)c1C,inactive: -12.8%,
Cc1ccnc(N2C(=O)CSC2c2ccc(Cl)cc2)c1 (centres undefined),inconclusive: -5.3%,
OCC(O)C(O)C(O)C(O)c1nc2ccccc2[nH]1 (centres undefined),inconclusive: -0.219% [at 46 µM],
O=C(NCc1ccncc1)Nc1cccc([N+](=O)[O-])c1,inconclusive: -12.3% [at 46 µM],
Oc1ccc(-c2csc(Nc3ncccn3)n2)c(O)c1,inconclusive: -32.8% [at 46 µM],

Compound,"ratio change, negative = inhibition",Potency
O=C(Cn1c(=O)n(Cc2ccco2)c(=O)c2c3c(sc21)CCCC3)Nc1ccccc1,inactive: 5.15%,
CC(=O)c1c(COC(=O)c2cccnc2)nc2ccccc2[n+]1[O-],inactive: 5.47%,
COc1ccc(C(=O)NNc2ncnc3c2cnn3-c2ccc(C)c(Cl)c2)cc1,inconclusive: -5.07% [at 46 µM],
Cc1ncoc1C(=O)Nc1ccc(Oc2ccccc2)cc1,inconclusive: -35.6%,
COc1cccc(NC(=O)C(Sc2nnc(-c3ccncc3)n2-c2ccc(Cl)cc2)c2ccccc2)c1 (centres undefined),inconclusive: -19.9%,
Cc1ccc(C(=O)O/N=C/c2c(C)nn(C)c2Cl)cc1,inconclusive: 23.6% [at 46 µM],
CC1(C)C(N(O)C(=O)Nc2ccc(Cl)cc2)N(c2ccc(Cl)cc2)C(=O)N1CC(=O)NN (centres undefined),inactive: 4.89%,
COc1ccc(CSC2=CS(=O)(=O)c3ccccc3N2)cc1,,"inconclusive: 35.5 µM [falling, single point]"
CCN1CCN(c2nc3sc4c(c3c3ncnn23)CC(C)CC4)CC1 (centres undefined),inconclusive: 10.8%,
O=C1Nc2ccc(Cl)cc2/C1=C/C1CC=CCC1 (centres undefined),inconclusive: 10%,
Cc1cc(C)cc(NC(=O)c2cc(S(=O)(=O)N3CCC(C)CC3)cn2C)c1,inactive: -7.33% [at 46 µM],
CC(CCc1ccco1)NC(=O)Cn1ncc2c1-c1ccccc1OC2 (centres undefined),inactive: 0.034%,
COc1cccc(C(=O)CSc2nnnn2C2CCCCC2)c1,inactive: 5.77%,
CC(=O)Nc1ccc(S(=O)(=O)NCCSCc2c(Cl)cccc2Cl)cc1,inconclusive: -15.8%,
CNC(=O)C1CCC(Cn2c(=O)c3sccc3n(CC(=O)NCc3ccc(OC)cc3)c2=O)CC1 (centres undefined),inconclusive: 13.8% [at 46 µM],
O=C(CSCc1ccc(F)cc1)N1CCN(c2ccc(Cl)cc2)CC1,inactive: -12.6% [at 46 µM],
COCCCn1c(-c2ccco2)nc2ccccc2c1=O,inactive: 0.703%,
O=C1OCCC1Sc1nnc(-c2ccc(Br)cc2)o1 (centres undefined),inactive: 13%,
COc1ccc(-c2nc(CS(=O)(=O)CC(=O)Nc3ccc(Cl)cc3)c(C)o2)cc1,inconclusive: -31.1%,
CCOC(=O)c1sc(NC(=S)NC(=O)CC(C)C)cc1C,inconclusive: -30.6%,
CC(=NCCCn1ccnc1)c1c(C)[nH]n(-c2ccc([N+](=O)[O-])cc2)c1=O,inconclusive: -12.1% [at 46 µM],

# Reformatted with bars between the fields: 20 of the compounds above.
Compound | ratio change, negative = inhibition | Potency
O=C(NCc1ccncc1)Nc1cccc([N+](=O)[O-])c1 | inconclusive: -12.3% [at 46 µM] | 
Oc1ccc(-c2csc(Nc3ncccn3)n2)c(O)c1 | inconclusive: -32.8% [at 46 µM] | 
CC(=O)c1c(COC(=O)c2cccnc2)nc2ccccc2[n+]1[O-] | inactive: 5.47% | 
COc1ccc(C(=O)NNc2ncnc3c2cnn3-c2ccc(C)c(Cl)c2)cc1 | inconclusive: -5.07% [at 46 µM] | 
Cc1ncoc1C(=O)Nc1ccc(Oc2ccccc2)cc1 | inconclusive: -35.6% | 
Cc1ccc(C(=O)O/N=C/c2c(C)nn(C)c2Cl)cc1 | inconclusive: 23.6% [at 46 µM] | 
CC1(C)C(N(O)C(=O)Nc2ccc(Cl)cc2)N(c2ccc(Cl)cc2)C(=O)N1CC(=O)NN (centres undefined) | inactive: 4.89% | 
COc1ccc(CSC2=CS(=O)(=O)c3ccccc3N2)cc1 |  | inconclusive: 35.5 µM [falling, single point]
CCN1CCN(c2nc3sc4c(c3c3ncnn23)CC(C)CC4)CC1 (centres undefined) | inconclusive: 10.8% | 
O=C1Nc2ccc(Cl)cc2/C1=C/C1CC=CCC1 (centres undefined) | inconclusive: 10% | 
CC(CCc1ccco1)NC(=O)Cn1ncc2c1-c1ccccc1OC2 (centres undefined) | inactive: 0.034% | 
COc1cccc(C(=O)CSc2nnnn2C2CCCCC2)c1 | inactive: 5.77% | 
CC(=O)Nc1ccc(S(=O)(=O)NCCSCc2c(Cl)cccc2Cl)cc1 | inconclusive: -15.8% | 
CNC(=O)C1CCC(Cn2c(=O)c3sccc3n(CC(=O)NCc3ccc(OC)cc3)c2=O)CC1 (centres undefined) | inconclusive: 13.8% [at 46 µM] | 
O=C(CSCc1ccc(F)cc1)N1CCN(c2ccc(Cl)cc2)CC1 | inactive: -12.6% [at 46 µM] | 
COCCCn1c(-c2ccco2)nc2ccccc2c1=O | inactive: 0.703% | 
O=C1OCCC1Sc1nnc(-c2ccc(Br)cc2)o1 (centres undefined) | inactive: 13% | 
COc1ccc(-c2nc(CS(=O)(=O)CC(=O)Nc3ccc(Cl)cc3)c(C)o2)cc1 | inconclusive: -31.1% | 
CCOC(=O)c1sc(NC(=S)NC(=O)CC(C)C)cc1C | inconclusive: -30.6% | 
CC(=NCCCn1ccnc1)c1c(C)[nH]n(-c2ccc([N+](=O)[O-])cc2)c1=O | inconclusive: -12.1% [at 46 µM] | 
